Experimental data taken from PubChem BioAssay AID743266 (National Center for Advancing Translational Sciences (NCATS), 2014).
Screen size: about 410,000 compounds; about 310 (0.076%) were called active. Inconclusive results, whose numbers are uncertain, are shown with a selection of clear calls. The call rests on the fitted dose curve; in most records, active means well fitted activation curve with a large enough effect; inconclusive means small, poorly fitted or top-dose-only effect, or another doubt; inactive means no such curve, though single readings can be large or run the other way. A potency beside an inconclusive call is a rough fit, not a confirmed value.

Sequences of proteins named here, by UniProt entry; tags and fusion partners are left off.
UniProt Q03431, whole entry, looked up: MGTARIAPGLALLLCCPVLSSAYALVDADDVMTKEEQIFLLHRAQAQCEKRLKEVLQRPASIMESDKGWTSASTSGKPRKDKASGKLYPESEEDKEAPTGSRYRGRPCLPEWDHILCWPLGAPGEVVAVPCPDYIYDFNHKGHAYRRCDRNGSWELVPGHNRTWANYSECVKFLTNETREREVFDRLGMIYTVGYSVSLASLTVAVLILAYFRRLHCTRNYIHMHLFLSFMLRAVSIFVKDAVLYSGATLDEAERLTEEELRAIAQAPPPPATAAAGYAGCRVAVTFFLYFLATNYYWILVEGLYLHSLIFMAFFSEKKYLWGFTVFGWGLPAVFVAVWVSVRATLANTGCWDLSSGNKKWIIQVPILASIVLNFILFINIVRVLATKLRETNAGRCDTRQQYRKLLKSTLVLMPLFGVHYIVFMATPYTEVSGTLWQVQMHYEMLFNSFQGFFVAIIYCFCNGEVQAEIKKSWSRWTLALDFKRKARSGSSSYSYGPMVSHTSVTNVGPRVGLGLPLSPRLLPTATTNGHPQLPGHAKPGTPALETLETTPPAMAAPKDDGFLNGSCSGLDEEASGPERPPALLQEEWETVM

These molecules were tested against Parathyroid hormone/parathyroid hormone-related peptide receptor (Homo sapiens) (UniProt Q03431) (assay: qHTS for PTHR1 Agonists: Primary Screen). Settings: HEK293 GP2 PTHR1 cells, GloSensor cAMP luminescence, 1 h; activation: at 115 µM (top of the series) unless noted; series mostly up to 115 µM.
Procedure, shortened: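 HEK-293-derived GP2 cells expressing PTHR1 and a GloSensor cAMP reporter, 3,000/well, plated overnight, given luciferin plus IBMX (each 0.5 mM as added) for 1 h at 37 °C, then compound for 1 h at 37 °C. Luminescence was read after 15 min at room temperature.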
Further: nearly all actives have a fitted effect of over 55% in size.
Potency means the concentration at half of the fitted maximal effect.

Potency, active:
CCN(CC)CCCNC(=O)c1ccc2c(c1)NC(=O)C(CS(=O)(=O)Cc1cccc(Br)c1)N2 (centres undefined) 15.8 µM

Potency, inconclusive:
COc1cccc(CN(C(=O)Cc2c[nH]c3ccccc23)C(C(=O)NC2CCCCC2)c2cccs2)c1 (centres undefined) 8.91 µM [activator, partial curve]
CC(=O)c1ccc(OCC(=O)OCC(=O)NCc2ccco2)cc1 56.2 µM [activator, single point]
Cc1ccc(NC(=O)c2cc3nc(-c4ccccc4)cc(-c4ccccc4)n3n2)cc1 112 µM [activator, partial curve, poor fit]
Cc1cc(C)cc(-n2cnc3cc(C(=O)O)ccc32)c1 31.6 µM [activator, partial curve, poor fit]
CCCCCN(C(=O)NC(=O)Nn1cnnc1)S(C)(=O)=O 3.55 µM [activator, partial curve, poor fit]
O=C(NC(Cc1ccccc1)c1ccc2c(c1)OCCCO2)c1ccc(F)cc1 (centres undefined) 1 µM [activator, full curve]
CCOc1ccc(CNC(=O)CC(C)n2nc(C)cc2C)cc1OC (centres undefined) 50.1 µM [activator, partial curve, poor fit]
CCc1nn2c(=O)cc(COC(=O)c3ccc(NC(=O)COc4ccc(C)cc4)cc3)nc2s1 35.5 µM [activator, partial curve, poor fit]
CCOC(CNC(=O)C(=O)Nc1cc2c3c(c1)CCN3C(=O)CC2)OCC 7.94 µM [activator, full curve, poor fit]
Cc1ccc2nc(/C(C#N)=C\c3cc(C)n(-c4cccc([N+](=O)[O-])c4)c3C)[nH]c2c1 35.5 µM [activator, single point]
O=C(CN1C(=O)c2ccccc2C1=O)NCC1COc2ccccc2O1 (centres undefined) 1.78 µM [activator, partial curve, poor fit]
CC(C)(C)c1ccc(/C=C/C(=O)O)s1 89.1 µM [activator, partial curve, poor fit]
Nc1ccccc1-c1nnc(-c2ccccc2N)n1N 28.2 µM [activator, single point]
Cc1cc(/C=C(\C#N)C(=O)NCc2cccs2)c(C)n1-c1ccc([N+](=O)[O-])cc1 15.8 µM [activator, partial curve]
CCc1cccc2c(-c3ccc(F)cc3)nc(SCC(=O)Nc3ccccc3)nc12 3.16 µM [activator, full curve, poor fit]
O=C(O)c1ccc(CNC(=O)c2ccc3c(c2)C(=O)N(Cc2cccnc2)C3=O)cc1 35.5 µM [activator, partial curve, poor fit]
O=c1[nH]c2ccc(Br)cc2c(-c2ccccc2)c1CN1CCOCC1 126 µM [activator, single point]
COc1ccccc1N1CCN(c2nc3ccc(C)cc3n3nnnc23)CC1 79.4 µM [activator, partial curve, poor fit]
CCOC(=O)C(NC(C)=O)C(OC(C)=O)c1cccc([N+](=O)[O-])c1 (centres undefined) 15.8 µM [activator, single point]
CC(C)(C)[C@H]1C=C(C(=O)O)O[C@@H](OCCCCO)C1 50.1 µM [activator, partial curve, poor fit]
CCOc1ccc(C(=O)Nc2cc(-c3cn4cccnc4n3)ccc2C)cc1OCC 141 µM [activator, single point]
COc1ccc(CCN(C)CC(=O)Nc2c(C)cc(C)cc2C)cc1OC 22.4 µM [activator, partial curve]
COc1cc(C2C3=C(COC3=O)OC(C)(C)Oc3cc4c(cc32)OCO4)cc(OC)c1OC (centres undefined) 17.8 µM [activator, partial curve]
COc1cccc(CNC(=O)CCC(=O)N2CCOCC2)c1 56.2 µM [activator, partial curve, poor fit]

activation, inactive:
Cc1ccc(/C=C/C(=O)c2ccc(C)cc2)cc1 -48.4% [at 57.5 µM]
Cc1ccc(C(=O)COC(=O)C(Cc2c[nH]c3ccccc23)NC(=O)c2ccc(C(C)(C)C)cc2)cc1 (centres undefined) 5.83%
COCCCNC(=O)c1cnc2sc(N3CCCCCC3)nn2c1=O -22.7%
CC(C)c1ccc(NC(=O)c2cc(S(=O)(=O)NCc3ccccc3Cl)ccc2F)cc1 -16.6%
COc1ccc(/C=N/OCC(=O)Nn2c(C)nc3ccccc3c2=O)cc1 -6.69%
CCOc1ccc2[nH]c(C)c(CN3CCOCC3)c(=O)c2c1 -9.29%

activation, inconclusive:
O=C1c2cccnc2C(O)N1C1CCCCC1 (centres undefined) -39.1% [activator] [at 57.5 µM]
Cc1ccc(C23CC4CC(CC(C(=O)NN)(C4)C2)C3)cc1 33.1% [activator]
O=C(Cc1ccccc1)Nc1ccc(N2CCCCC2)cc1 -47.5% [activator]
c1ccc(C(c2c[nH]c3ccccc23)c2c[nH]c3ccccc23)nc1 47.5% [activator]
O=C(O)c1ccc(CSc2nc3c(c(=O)[nH]2)CCC3)cc1 50.6% [activator]
COc1cc(OC)cc(-c2nnc(SCC(=O)NCc3cccs3)o2)c1 54.9% [activator] [at 57.5 µM]

Nothing new here: 3 of the compounds above.
activation, inconclusive:
O=C(Cc1ccccc1)Nc1ccc(N2CCCCC2)cc1 -47.5% [activator]
c1ccc(C(c2c[nH]c3ccccc23)c2c[nH]c3ccccc23)nc1 47.5% [activator]
O=C(O)c1ccc(CSc2nc3c(c(=O)[nH]2)CCC3)cc1 50.6% [activator]

Following part.

outcome, inactive:
O=C(CSc1ncnc2c1oc1ccccc12)OCc1ccccc1
CCn1c2ccccc2c2cc(NC(=O)COC(=O)c3cc(OC)c(OC)cc3OC)ccc21
Cc1ccc2c(=O)n3c(nc2c1)C(C)NC(=O)c1cccnc1-3 (centres undefined)
S=c1[nH]nc(-c2cc(-c3ccccc3)n[nH]2)n1/N=C/C=C/c1ccco1
CCSc1nnc(-c2cnn(-c3ccccc3)c2-n2cccc2)n1C
O=C(c1ccc(Br)cc1)N1CCN(c2ccccn2)CC1
COCc1nnc(NC(=O)c2cc(Cl)ccc2OC)s1
